Our source for the binding values is patent US20240327538A1.

Chains of the proteins cited; added tags and fusions are not shown. Residues count along the entry.
UniProt Q04609, residues 44-750: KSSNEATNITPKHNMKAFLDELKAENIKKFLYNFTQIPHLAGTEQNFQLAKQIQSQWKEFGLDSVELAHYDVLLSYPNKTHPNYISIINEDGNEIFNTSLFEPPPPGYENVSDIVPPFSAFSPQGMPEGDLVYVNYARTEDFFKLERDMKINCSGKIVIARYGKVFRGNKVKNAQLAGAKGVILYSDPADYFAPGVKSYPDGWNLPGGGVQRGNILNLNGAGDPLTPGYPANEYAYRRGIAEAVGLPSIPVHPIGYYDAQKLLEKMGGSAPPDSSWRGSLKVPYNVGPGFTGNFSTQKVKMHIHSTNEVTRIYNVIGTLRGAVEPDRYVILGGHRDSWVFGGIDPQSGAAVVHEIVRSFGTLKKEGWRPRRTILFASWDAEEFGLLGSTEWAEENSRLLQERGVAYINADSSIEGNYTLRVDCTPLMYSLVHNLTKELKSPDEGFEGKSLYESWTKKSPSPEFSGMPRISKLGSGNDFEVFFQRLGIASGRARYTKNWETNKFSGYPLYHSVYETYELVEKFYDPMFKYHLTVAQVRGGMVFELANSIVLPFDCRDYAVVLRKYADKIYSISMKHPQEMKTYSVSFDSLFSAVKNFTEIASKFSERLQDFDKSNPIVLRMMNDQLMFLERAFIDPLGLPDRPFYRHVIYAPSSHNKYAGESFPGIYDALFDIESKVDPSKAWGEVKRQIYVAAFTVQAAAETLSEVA

The target of this experiment is human PSMA (human) (UniProt Q04609). The experiment is described as follows: relative to PSMA.2; uTCE with CD3.23.

Results are given in words; binding and its absence hold for the method and conditions named. Some entries that bind do so weakly or less than the wild type.

B1: AC2717 (PSMA.5 with CD3.23) (bispecific antibody, V domains shown)
VHH: QVQLVESGGGVVQPGRSLRLSCAASGRTFGIYVMGWVRQAPGKEREFVAAISWSGSNRLVSDSVKGRFTISRDNSKNTLYLQMNSLRAEDTAVYYCAASNRLYGRTWYDFNESDYWGQGTQVTVSS
VL: ELVVTQEPSLTVSPGGTVTLTCRSSNGAVTSSNYANWVQQKPGQAPRGLIGGTNKRAPGTPARFSGSLLGGKAALTLSGVQPEDEAVYYCALWYPNLWVFGGGTKLTVL
VH: EVQLLESGGGIVQPGGSLKLSCAASGFTFNTYAMNWVRQAPGKGLEWVARIRSKYNNYATYYADSVKDRFTISRDDSKNTVYLQMNNLKTEDTAVYYCVRHENFGNSYVSWFAHWGQGTLVTVSS
In the case of B1, the binding entry was “binds”.
